In one test the test system is IMR-90. Put plainly: relative cell viability (ATPlite) vs untreated control (fraction); higher = less toxic. Particulars: 1 µM; 72 h.
Test [1] concerns K562. The description is as above. The conditions noted are these: 1 µM; 72 h.
Test [2] concerns K562. Briefly: relative cell viability (ATPlite) vs untreated control, with imatinib (fraction); higher = less toxic. Particulars: 1 µM; 72 h; imatinib 0.125 µM. For orientation: In ATP-based viability assays light output follows the ATP content of the culture.

± gives the standard deviation of the averaged measurements. Only a part is listed here, and it is no random draw.

On to `O=C1Nc2ccc(-c3cccnc3)cc2/C1=C/c1ccc[nH]1` [JAK3 Inhibitor VI], for which the relative cell viability with IMR-90 is 1.16 ± 0.11; with K562 [1] it was 0.776 ± 0.079; with K562 [2] it was 0.644 ± 0.051.

The values above are taken from the supplement of paper PMC4100887.
